Our source for the mCherry and percent effect values is the supplement of paper PMC8256030.

The test system of experiment [1] is SARS-CoV-2 -1 PRF reporter mCherry-FSE-GFP(-1). The experiment is described as follows: mCherry (red) intensity as percent of control; higher = higher upstream reporter expression. The settings on record: 10 µM; 24 h; HEK293T.
Experiment [2] has the same test system. The experiment is described as follows: percent effect, decrease of GFP/mCherry ratio (-1 PRF reporter) relative to controls; higher = stronger frameshift inhibition. The settings on record: 10 µM; 24 h; HEK293T.

Where “and” joins values, the source holds several entries; their conditions need not be identical. Equal values may be shown once. Where a name gives a salt, the structure may show the parent alone. Some of the results follow. Repeats in this data set agree poorly, so a single value says little.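 HEK293T cells were given each compound shortly before transfection with a reporter in which red mCherry is followed by the SARS-CoV-2 frameshift element and then GFP in the −1 frame, so GFP appears only after frameshifting.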

In experiment [1], `CN1CCN2c3ccccc3Cc3ccccc3C2C1` (stereo unspecified) had a mCherry of 98.3%. Moreover, in experiment [2], the percent effect is -0.631%.

As to `CCN(CC)CC(=O)Oc1ccc(NC(C)=O)cc1` [propacetamol], the mCherry in experiment [1] came out at 100%. In experiment [2], the percent effect is -6.61%.

The compound `O=C1NCC2(CCN(CCc3ccccc3)CC2)O1` [Fenspiride] yielded a mCherry in experiment [1] of 93.6%. In experiment [2], the percent effect worked out at 0.212%.

Regarding `CN(C)CCOC(=O)C(c1ccccc1)C1(O)CCCC1` (stereo unspecified) [cyclopentolate], the mCherry in experiment [1] stood at 103%. The percent effect in experiment [2] was -4.28%.

Compound `CCCCC(CC)COc1ccc(-c2nc(-c3ccc(OC)cc3)nc(-c3ccc(OCC(CC)CCCC)cc3O)n2)c(O)c1` (stereo unspecified) gave a mCherry in experiment [1] of 106%. Besides, the percent effect in experiment [2] was -2.88%.

`COc1cc2c(cc1OC)-c1c/c(=N\c3c(C)cc(C)cc3C)n(C)c(=O)n1CC2` [Trequinsin·HCl] returned a mCherry in experiment [1] of 50.4%. For the same compound, in experiment [2], the percent effect is -11.8%.

`Oc1ccc(CCNCCCCCCNCCc2ccccc2)cc1O` [dopexamine] registered a mCherry in experiment [1] of 85%. The percent effect in experiment [2] is -6.05%.

In experiment [1], `CC(C)(C)NCC(O)c1cc(Br)no1` (stereo unspecified) [broxaterol] had a mCherry of 104%. The percent effect in experiment [2] is -0.205%.

With `O=C(O)CNC(=O)CNC(=O)CNC(=O)CSC(=O)c1ccccc1` [betiatide], the mCherry in experiment [1] worked out at 65%. In experiment [2], the percent effect is 2.92%.

Compound `C=C[C@@]1(C)CC(=O)[C@]2(O)[C@@]3(C)[C@@H](O)CCC(C)(C)[C@@H]3[C@H](O)[C@H](OC(C)=O)[C@@]2(C)O1` gave a mCherry in experiment [1] of 115%. In addition, in experiment [2], the percent effect stood at 1.76%.

Compound `C[C@]12CC[C@@H]3c4ccc(O)cc4CC[C@H]3[C@@H]1CC[C@@H]2OC(=O)CCC1CCCC1` registered a mCherry in experiment [1] of 116%. The percent effect in experiment [2] was -11%.

Take `Cc1cccc(Nc2ccccc2C(=O)O)c1C` [mefenamic acid]: the mCherry in experiment [1] was 90.2% and 102%. For the same compound, the percent effect in experiment [2] is 0.475% and 5.38%.

As to `C[C@H]1C[C@H]2[C@@H]3CCC4=CC(=O)C=C[C@]4(C)[C@@]3(F)[C@@H](O)C[C@]2(C)[C@@]1(O)C(=O)COP(=O)(O)O`, in experiment [1], the mCherry was 104%. In experiment [2], the percent effect came out at 0.112%.
